Results as given in the supplement of paper PMC3353916.

Test system: Sindbis virus TE/5'2J-GFP
Assay: percent infected (GFP+ in RFP+ ISG-expressing cells); higher = more infection (less antiviral activity)
Conditions: experiment: primary screen (single well)

MAGAATGSRTPGRSELVEGCGWRCPEHGDRVAELFCRRCRRCVCALCPVLGAHRGHPVGLALEAAVHVQKLSQECLKQLAIKKQQHIDNITQIEDATEKLKANAESSKTWLKGKFTELRLLLDEEEALAKKFIDKNTQLTLQVYREQADSCREQLDIMNDLSNRVWSISQEPDPVQRLQAYTATEQEMQQQMSLGELCHPVPLSFEPVKSFFKGLVEAVESTLQTPLDIRLKESINCQLSDPSSTKPGTLLKTSPSPERSLLLKYARTPTLDPDTMHARLRLSADRLTVRCGLLGSLGPVPVLRFDALWQVLARDCFATGRHYWEVDVQEAGAGWWVGAAYASLRRRGASAAARLGCNRQSWCLKRYDLEYWAFHDGQRSRLRPRDDLDRLGVFLDYEAGVLAFYDVTGGMSHLHTFRATFQEPLYPALRLWEGAISIPRLP [TRIM14]
percent infected (BHK/HA-Zeo (control)): 96.8%
percent infected (BHK/NZAP-Zeo (ZAP)): 86.1%

MAGIELERCQQQANEVTEIMRNNFGKVLERGVKLAELQQRSDQLLDMSSTFNKTTQNLAQKKCWENIRYRICVGLVVVGVLLIILIVLLVVFLPQSSDSSSAPRTQDAGIASGPGN [VAMP5]
percent infected (BHK/HA-Zeo (control)): 87.6%
percent infected (BHK/NZAP-Zeo (ZAP)): 78.1%

MAGPERWGPLLLCLLQAAPGRPRLAPPQNVTLLSQNFSVYLTWLPGLGNPQDVTYFVAYQSSPTRRRWREVEECAGTKELLCSMMCLKKQDLYNKFKGRVRTVSPSSKSPWVESEYLDYLFEVEPAPPVLVLTQTEEILSANATYQLPPCMPPLDLKYEVAFWKEGAGNKTLFPVTPHGQPVQITLQPAASEHHCLSARTIYTFSVPKYSKFSKPTCFLLEVPEANWAFLVLPSLLILLLVIAAGGVIWKTLMGNPWFQRAKMPRALDFSGHTHPVATFQPSRPESVNDLFLCPQKELTRGVRPTPRVRAPATQQTRWKKDLAEDEEEEDEEDTEDGVSFQPYIEPPSFLGQEHQAPGHSEAGGVDSGRPRAPLVPSEGSSAWDSSDRSWASTVDSSWDRAGSSGYLAEKGPGQGPGGDGHQESLPPPEFSKDSGFLEELPEDNLSSWATWGTLPPEPNLVPGGPPVSLQTLTFCWESSPEEEEEARESEIEDSDAGSWGAESTQRTEDRGRTLGHYMAR [IL28RA]
percent infected (BHK/HA-Zeo (control)): 55.5%
percent infected (BHK/NZAP-Zeo (ZAP)): 5.76%

MAKRNAEKELTDRNWDQEDEAEEVGTFSMASEEVLKNRAIKKAKRRNVGFESDTGGAFKGFKGLVVPSGGGRFSGFGSGAGGKPLEGLSNGNNITSAPPFASAKAAADPKVAFGSLAANGPTTLVDKVSNPKTNGDSQQPSSSGLASSKACVGNAYHKQLAALNCSVRDWIVKHVNTNPLCDLTPIFKDYEKYLANIEQQHGNSGRNSESESNKVAAETQSPSLFGSTKLQQESTFLFHGNKTEDTPDKKMEVASEKKTDPSSLGATSASFNFGKKVDSSVLGSLSSVPLTGFSFSPGNSSLFGKDTTQSKPVSSPFPTKPLEGQAEGDSGECKGGDEEENDEPPKVVVTEVKEEDAFYSKKCKLFYKKDNEFKEKGIGTLHLKPTANQKTQLLVRADTNLGNILLNVLIPPNMPCTRTGKNNVLIVCVPNPPIDEKNATMPVTMLIRVKTSEDADELHKILLEKKDA [NUP50]
percent infected (BHK/HA-Zeo (control)): 93.7%
percent infected (BHK/NZAP-Zeo (ZAP)): 89.5%

MALAPERAAPRVLFGEWLLGEISSGCYEGLQWLDEARTCFRVPWKHFARKDLSEADARIFKAWAVARGRWPPSSRGGGPPPEAETAERAGWKTNFRCALRSTRRFVMLRDNSGDPADPHKVYALSRELCWREGPGTDQTEAEAPAAVPPPQGGPPGPFLAHTHAGLQAPGPLPAPAGDKGDLLLQAVQQSCLADHLLTASWGADPVPTKAPGEGQEGLPLTGACAGGPGLPAGELYGWAVETTPSPGPQPAALTTGEAAAPESPHQAEPYLSPSPSACTAVQEPSPGALDVTIMYKGRTVLQKVVGHPSCTFLYGPPDPAVRATDPQQVAFPSPAELPDQKQLRYTEELLRHVAPGLHLELRGPQLWARRMGKCKVYWEVGGPPGSASPSTPACLLPRNCDTPIFDFRVFFQELVEFRARQRRGSPRYTIYLGFGQDLSAGRPKEKSLVLVKLEPWLCRVHLEGTQREGVSSLDSSSLSLCLSSANSLYDDIECFLMELEQPA [IRF7]
percent infected (BHK/HA-Zeo (control)): 93.9%
percent infected (BHK/NZAP-Zeo (ZAP)): 49.7%

MALEIHMSDPMCLIENFNEQLKVNQEALEILSAITQPVVVVAIVGLYRTGKSYLMNKLAGKNKGFSVASTVQSHTKGIWIWCVPHPNWPNHTLVLLDTEGLGDVEKADNKNDIQIFALALLLSSTFVYNTVNKIDQGAIDLLHNVTELTDLLKARNSPDLDRVEDPADSASFFPDLVWTLRDFCLGLEIDGQLVTPDEYLENSLRPKQGSDQRVQNFNLPRLCIQKFFPKKKCFIFDLPAHQKKLAQLETLPDDELEPEFVQQVTEFCSYIFSHSMTKTLPGGIMVNGSRLKNLVLTYVNAISSGDLPCIENAVLALAQRENSAAVQKAIAHYDQQMGQKVQLPMETLQELLDLHRTSEREAIEVFMKNSFKDVDQSFQKELETLLDAKQNDICKRNLEASSDYCSALLKDIFGPLEEAVKQGIYSKPGGHNLFIQKTEELKAKYYREPRKGIQAEEVLQKYLKSKESVSHAILQTDQALTETEKKKKEAQVKAEAEKAEAQRLAAIQRQNEQMMQERERLHQEQVRQMEIAKQNWLAEQQKMQEQQMQEQAAQLSTTFQAQNRSLLSELQHAQRTVNNDDPCVLL [GBP5]
percent infected (BHK/HA-Zeo (control)): 96.8%
percent infected (BHK/NZAP-Zeo (ZAP)): 84.7%

MALLDVCGAPRGQRPESALPVAGSGRRSDPGHYSFSMRSPELALPRGMQPTEFFQSLGGDGERNVQIEMAHGTTTLAFKFQHGVIAAVDSRASAGSYISALRVNKVIEINPYLLGTMSGCAADCQYWERLLAKECRLYYLRNGERISVSAASKLLSNMMCQYRGMGLSMGSMICGWDKKGPGLYYVDEHGTRLSGNMFSTGSGNTYAYGVMDSGYRPNLSPEEAYDLGRRAIAYATHRDSYSGGVVNMYHMKEDGWVKVESTDVSDLLHQYREANQ [PSMB8]
percent infected (BHK/HA-Zeo (control)): 95.4%
percent infected (BHK/NZAP-Zeo (ZAP)): 84.8%

MALLFLLPLVMQGVSRAEMGTADLGPSSVPTPTNVTIESYNMNPIVYWEYQIMPQVPVFTVEVKNYGVKNSEWIDACINISHHYCNISDHVGDPSNSLWVRVKARVGQKESAYAKSEEFAVCRDGKIGPPKLDIRKEEKQIMIDIFHPSVFVNGDEQEVDYDPETTCYIRVYNVYVRMNGSEIQYKILTQKEDDCDEIQCQLAIPVSSLNSQYCVSAEGVLHVWGVTTEKSKEVCITIFNSSIKGSLWIPVVAALLLFLVLSLVFICFYIKKINPLKEKSIILPKSLISVVRSATLETKPESKYVSLITSYQPFSLEKEVVCEEPLSPATVPGMHTEDNPGKVEHTEELSSITEVVTTEENIPDVVPGSHLTPIERESSSPLSSNQSEPGSIALNSYHSRNCSESDHSRNGFDTDSSCLESHSSLSDSEFPPNNKGEIKTEGQELITVIKAPTSFGYDKPHVLVDLLVDDSGKESLIGYRPTEDSKEFS [IFNGR1]
percent infected (BHK/HA-Zeo (control)): 97.7%
percent infected (BHK/NZAP-Zeo (ZAP)): 94%

MALLLALSLLVLWTSPAPTLSGTNDAEDCCLSVTQKPIPGYIVRNFHYLLIKDGCRVPAVVFTTLRGRQLCAPPDQPWVERIIQRLQRTSAKMKRRSS [CCL19]
percent infected (BHK/NZAP-Zeo (ZAP)): 70.5%

MALMQELYSTPASRLDSFVAQWLQPHREWKEEVLDAVRTVEEFLRQEHFQGKRGLDQDVRVLKVVKVGSFGNGTVLRSTREVELVAFLSCFHSFQEAAKHHKDVLRLIWKTMWQSQDLLDLGLEDLRMEQRVPDALVFTIQTRGTAEPITVTIVPAYRALGPSLPNSQPPPEVYVSLIKACGGPGNFCPSFSELQRNFVKHRPTKLKSLLRLVKHWYQQYVKARSPRANLPPLYALELLTIYAWEMGTEEDENFMLDEGFTTVMDLLLEYEVICIYWTKYYTLHNAIIEDCVRKQLKKERPIILDPADPTLNVAEGYRWDIVAQRASQCLKQDCCYDNRENPISSWNVKRARDIHLTVEQRGYPDFNLIVNPYEPIRKVKEKIRRTRGYSGLQRLSFQVPGSERQLLSSRCSLAKYGIFSHTHIYLLETIPSEIQVFVKNPDGGSYAYAINPNSFILGLKQQIEDQQGLPKKQQQLEFQGQVLQDWLGLGIYGIQDSDTLILSKKKGEALFPAS [OASL]
percent infected (BHK/HA-Zeo (control)): 97.3%
percent infected (BHK/NZAP-Zeo (ZAP)): 92.8%

MALQRTHSLLLLLLLTLLGLGLVQPSYGQDGMYQRFLRQHVHPEETGGSDRYCNLMMQRRKMTLYHCKRFNTFIHEDIWNIRSICSTTNIQCKNGKMNCHEGVVKVTDCRDTGSSRAPNCRYRAIASTRRVVIACEGNPQVPVHFDG [RNASE4]
percent infected (BHK/HA-Zeo (control)): 98.5%
percent infected (BHK/NZAP-Zeo (ZAP)): 98.3%

MAPEIHMTGPMCLIENTNGELVANPEALKILSAITQPVVVVAIVGLYRTGKSYLMNKLAGKNKGFSLGSTVKSHTKGIWMWCVPHPKKPEHTLVLLDTEGLGDVKKGDNQNDSWIFTLAVLLSSTLVYNSMGTINQQAMDQLYYVTELTHRIRSKSSPDENENEDSADFVSFFPDFVWTLRDFSLDLEADGQPLTPDEYLEYSLKLTQGTSQKDKNFNLPRLCIRKFFPKKKCFVFDLPIHRRKLAQLEKLQDEELDPEFVQQVADFCSYIFSNSKTKTLSGGIKVNGPRLESLVLTYINAISRGDLPCMENAVLALAQIENSAAVQKAIAHYDQQMGQKVQLPAETLQELLDLHRVSEREATEVYMKNSFKDVDHLFQKKLAAQLDKKRDDFCKQNQEASSDRCSALLQVIFSPLEEEVKAGIYSKPGGYCLFIQKLQDLEKKYYEEPRKGIQAEEILQTYLKSKESVTDAILQTDQILTEKEKEIEVECVKAESAQASAKMVEEMQIKYQQMMEEKEKSYQEHVKQLTEKMERERAQLLEEQEKTLTSKLQEQARVLKERCQGESTQLQNEIQKLQKTLKKKTKRYMSHKLKI [GBP3]
percent infected (BHK/HA-Zeo (control)): 98.9%
percent infected (BHK/NZAP-Zeo (ZAP)): 95.6%

MAPEINLPGPMSLIDNTKGQLVVNPEALKILSAITQPVVVVAIVGLYRTGKSYLMNKLAGKKNGFSLGSTVKSHTKGIWMWCVPHPKKPEHTLVLLDTEGLGDIEKGDNENDSWIFALAILLSSTFVYNSMGTINQQAMDQLHYVTELTDRIKANSSPGNNSVDDSADFVSFFPAFVWTLRDFTLELEVDGEPITADDYLELSLKLRKGTDKKSKSFNDPRLCIRKFFPKRKCFVFDWPAPKKYLAHLEQLKEEELNPDFIEQVAEFCSYILSHSNVKTLSGGIPVNGPRLESLVLTYVNAISSGDLPCMENAVLALAQIENSAAVEKAIAHYEQQMGQKVQLPTETLQELLDLHRDSEREAIEVFMKNSFKDVDQMFQRKLGAQLEARRDDFCKQNSKASSDCCMALLQDIFGPLEEDVKQGTFSKPGGYRLFTQKLQELKNKYYQVPRKGIQAKEVLKKYLESKEDVADALLQTDQSLSEKEKAIEVERIKAESAEAAKKMLEEIQKKNEEMMEQKEKSYQEHVKQLTEKMERDRAQLMAEQEKTLALKLQEQERLLKEGFENESKRLQKDIWDIQMRSKSLEPICNIL [GBP2]
percent infected (BHK/HA-Zeo (control)): 74.4%
percent infected (BHK/NZAP-Zeo (ZAP)): 59.4%

MAPISLSWLLRLATFCHLTVLLAGQHHGVTKCNITCSKMTSKIPVALLIHYQQNQASCGKRAIILETRQHRLFCADPKEQWVKDAMQHLDRQAAALTRNGGTFEKQIGEVKPRTTPAAGGMDESVVLEPEATGESSSLEPTPSSQEAQRALGTSPELPTGVTGSSGTRLPPTPKAQDGGPVGTELFRVPPVSTAATWQSSAPHQPGPSLWAEAKTSEAPSTQDPSTQASTASSPAPEENAPSEGQRVWGQGQSPRPENSLEREEMGPVPAHTDAFQDWGPGSMAHVSVVPVSSEGTPSREPVASGSWTPKAEEPIHATMDPQRLGVLITPVPDAQAATRRQAVGLLAFLGLLFCLGVAMFTYQSLQGCPRKMAGEMAEGLRYIPRSCGSNSYVLVPV [CX3CL1]
percent infected (BHK/HA-Zeo (control)): 98.8%
percent infected (BHK/NZAP-Zeo (ZAP)): 95.8%

MAPRRARGCRTLGLPALLLLLLLRPPATRGITCPPPMSVEHADIWVKSYSLYSRERYICNSGFKRKAGTSSLTECVLNKATNVAHWTTPSLKCIRDPALVHQRPAPPSTVTTAGVTPQPESLSPSGKEPAASSPSSNNTAATTAAIVPGSQLMPSKSPSTGTTEISSHESSHGTPSQTTAKNWELTASASHQPPGVYPQGHSDTTVAISTSTVLLCGLSAVSLLACYLKSRQTPPLASVEMEAMEALPVTWGTSSRDEDLENCSHHL [IL15RA]
percent infected (BHK/HA-Zeo (control)): 98.8%
percent infected (BHK/NZAP-Zeo (ZAP)): 98.3%

This is a noisy data set.
